Source: patent publication US20250257146A1 (DAIICHI SANKYO COMPANY, LIMITED, priority 2013, published 2025)

Assay: general procedure: solution-phase peptide synthesis; N-hydroxysuccinimide with EDC hydrochloride; N-hydroxysuccinimide with DCC
Conditions: trifluoroacetate (deprotected intermediates)

Glycylglycyl-L-phenylalanyl-N-(4-{[(1S,9S)-9-ethyl-5-fluoro-9-hydroxy-4-methyl-10,13-dioxo-2,3,9,10,13,15-hexahydro-1H,12H-benzo[de]pyrano[3′,4′:6,7]indolizino[1,2-b]quinolin-1-yl]amino}-4-oxobutyl)glycinamide trifluoroacetate
step yield (late stage modification step): 99%

N-(tert-Butoxycarbonyl)glycylglycyl-L-phenylalanyl-N-(4-{[(1S,9S)-9-ethyl-5-fluoro-9-hydroxy-4-methyl-10,13-dioxo-2,3,9,10,13,15-hexahydro-1H,12H-benzo[de]pyrano[3′,4′:6,7]indolizino[1,2-b]quinolin-1-yl]amino}-4-oxobutyl)glycinamide
conjugation yield (conjugation step): 73%
